Experimental data as given in patent US6428529B1, “Epidural administration of therapeutic compounds with sustained rate of release” (SkyePharma Inc., priority 1995, dated 2002).

Tested on: rats
Experiment: Antinociception, hot plate test after epidural (or subcutaneous) dose
Format: in vivo, Sprague-Dawley rats
Settings: p<0.05 for each comparison

SMILES: CN1CC[C@]23c4c5ccc(O)c4O[C@H]2[C@@H](O)C=C[C@H]3[C@H]1C5.O=S(=O)(O)O [MS, morphine sulfate]
- peak-analgesia potency (ranking), epidural: greater than that of epidural DTC401
